# No constants are given. Whether binding was seen depends on the method and setting. Binding seen in cells or lysates may run through a third protein. Some entries that bind do so weakly or less than the wild type. Sequences can lack the tags named with a protein.
# B1: human Myc6-tagged Obi1 WT (enzyme, not shown: small tags and cut ends)
# chain: MAQTVQNVTLSLTLPITCHICLGKVRQPVICINNHVFCSICIDLWLKNNSQCPACRVPITPENPCKEIIGGTSESEPMLSHTVRKHLRKTRLELLHKEYEDEIDCLQKEVEELKSKNLSLESQIKTILDPLTLVQGNQNEDKHLVTDNPSKINPETVAEWKKKLRTANEIYEKVKDDVDKLKEANKKLKLENGGLVRENLRLKAEVDNRSPQKFGRFAVAALQSKVEQYERETNRLKKALERSDKYIEELESQVAQLKNSSEEKEAMNSICQTALSADGKGSKGSEEDVVSKNQGDSARKQPGSSTSSSSHLAKPSSSRLCDTSSARQESTSKADLNCSKNKDLYQEQVEVMLDVTDTSMDTYLEREWGNKPSDCVPYKDEELYDLPAPCTPLSLSCLQLSTPENRESSVVQAGGSKKHSNHLRKLVFDDFCDSSNVSNKDSSEDDISRSENEKKSECFSSPKTGFWDCCSTSYAQNLDFESSEGNTIANSVGEISSKLSEKSGLCLSKRLNSIRSFEMNRTRTSSEASMDAAYLDKISELDSMMSESDNSKSPCNNGFKSLDLDGLSKSSQGSEFLEEPDKLEEKTELNLSKGSLTNDQLENGSEWKPTSFFLLSPSDQEMNEDFSLHSSSCPVTNEIKPPSCLFQTEFSQGILLSSSHRLFEDQRFGSSLFKMSSEMHSLHNHLQSPWSTSFVPEKRNKNVNQSTKRKIQSSLSSASPSKATKS
# B2: Myc tagged Obi1 ΔRING (protein, not shown: small tags and cut ends)
# chain: ACRVPITPENPCKEIIGGTSESEPMLSHTVRKHLRKTRLELLHKEYEDEIDCLQKEVEELKSKNLSLESQIKTILDPLTLVQGNQNEDKHLVTDNPSKINPETVAEWKKKLRTANEIYEKVKDDVDKLKEANKKLKLENGGLVRENLRLKAEVDNRSPQKFGRFAVAALQSKVEQYERETNRLKKALERSDKYIEELESQVAQLKNSSEEKEAMNSICQTALSADGKGSKGSEEDVVSKNQGDSARKQPGSSTSSSSHLAKPSSSRLCDTSSARQESTSKADLNCSKNKDLYQEQVEVMLDVTDTSMDTYLEREWGNKPSDCVPYKDEELYDLPAPCTPLSLSCLQLSTPENRESSVVQAGGSKKHSNHLRKLVFDDFCDSSNVSNKDSSEDDISRSENEKKSECFSSPKTGFWDCCSTSYAQNLDFESSEGNTIANSVGEISSKLSEKSGLCLSKRLNSIRSFEMNRTRTSSEASMDAAYLDKISELDSMMSESDNSKSPCNNGFKSLDLDGLSKSSQGSEFLEEPDKLEEKTELNLSKGSLTNDQLENGSEWKPTSFFLLSPSDQEMNEDFSLHSSSCPVTNEIKPPSCLFQTEFSQGILLSSSHRLFEDQRFGSSLFKMSSEMHSLHNHLQSPWSTSFVPEKRNKNVNQSTKRKIQSSLSSASPSKATKS
# B3: Myc tagged Obi1 ΔCTD/OBD (protein, not shown: small tags and cut ends)
# chain: MAQTVQNVTLSLTLPITCHICLGKVRQPVICINNHVFCSICIDLWLKNNSQCPACRVPITPENPCKEIIGGTSESEPMLSHTVRKHLRKTRLELLHKEYEDEIDCLQKEVEELKSKNLSLESQIKTILDPLTLVQGNQNEDKHLVTDNPSKINPETVAEWKKKLRTANEIYEKVKDDVDKLKEANKKLKLENGGLVRENLRLKAEVDNRSPQKFGRFAVAALQSKVEQYERETNRLKKALERSDKYIEELESQVAQLKNSSEEKEAMNSICQTALSADGK
# B4: Myc tagged Obi1 CC (protein, not shown: small tags and cut ends)
# chain: ACRVPITPENPCKEIIGGTSESEPMLSHTVRKHLRKTRLELLHKEYEDEIDCLQKEVEELKSKNLSLESQIKTILDPLTLVQGNQNEDKHLVTDNPSKINPETVAEWKKKLRTANEIYEKVKDDVDKLKEANKKLKLENGGLVRENLRLKAEVDNRSPQKFGRFAVAALQSKVEQYERETNRLKKALERSDKYIEELESQVAQLKNSSEEKEAMNSICQTALSADGK
# How the values were obtained:
# [1] = target: T1, Flag tagged ORC1 (N-terminal Flag, pCS2-Flag) (human) (UniProt Q13415); experiment: anti-Flag co-immunoprecipitation from transfected U2OS cells, western blot with anti-Myc (FIG. 4B)
# T1 sequence: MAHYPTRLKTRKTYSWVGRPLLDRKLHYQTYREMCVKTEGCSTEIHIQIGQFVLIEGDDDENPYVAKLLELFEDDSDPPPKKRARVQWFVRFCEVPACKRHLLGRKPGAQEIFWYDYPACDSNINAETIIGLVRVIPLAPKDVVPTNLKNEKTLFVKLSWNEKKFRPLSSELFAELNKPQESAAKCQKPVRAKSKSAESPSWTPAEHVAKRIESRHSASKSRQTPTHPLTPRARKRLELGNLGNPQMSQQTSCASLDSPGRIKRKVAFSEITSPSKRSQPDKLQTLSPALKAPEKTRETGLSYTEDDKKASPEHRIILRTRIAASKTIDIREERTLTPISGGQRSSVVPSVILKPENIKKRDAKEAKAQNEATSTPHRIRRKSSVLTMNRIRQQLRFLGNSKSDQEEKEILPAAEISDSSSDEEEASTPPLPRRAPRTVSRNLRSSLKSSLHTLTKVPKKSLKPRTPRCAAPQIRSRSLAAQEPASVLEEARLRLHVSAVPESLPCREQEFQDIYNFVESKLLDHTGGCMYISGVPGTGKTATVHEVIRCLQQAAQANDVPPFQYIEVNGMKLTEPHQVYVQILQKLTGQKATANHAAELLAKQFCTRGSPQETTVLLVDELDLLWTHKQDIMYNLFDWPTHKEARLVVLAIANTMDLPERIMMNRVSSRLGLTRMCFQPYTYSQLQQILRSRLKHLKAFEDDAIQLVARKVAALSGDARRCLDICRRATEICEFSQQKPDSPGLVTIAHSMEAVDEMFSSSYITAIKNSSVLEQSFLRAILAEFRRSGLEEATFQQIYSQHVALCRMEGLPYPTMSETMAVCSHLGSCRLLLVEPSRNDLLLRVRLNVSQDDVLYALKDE
# [2] = target: T1, Flag tagged ORC1 (N-terminal Flag, pCS2-Flag) (human); experiment: anti-Flag co-immunoprecipitation from transfected U2OS cells, western blot with anti-Myc
# [3] = target: T2, Flag tagged full length Obi1 protein (human) (UniProt Q5W0B1); experiment: as above
# T2 sequence: B1 chain
Binder,binding [1],binding [2],binding [3]
B1,binds,binds,binds
B2,,,binds
B3,,,binds
B4,,,binds

# Source: patent US20160122742A1 (published 2016)
